Test results from the supplement of paper PMC10849652.
Some of the results follow.

Protein sequences, listed by entry. Tags and fused reporters are not part of them. Lines headed by an entry give the natural chain unless they say otherwise; changes in a name come on top.
UniProt Q7Z4V5: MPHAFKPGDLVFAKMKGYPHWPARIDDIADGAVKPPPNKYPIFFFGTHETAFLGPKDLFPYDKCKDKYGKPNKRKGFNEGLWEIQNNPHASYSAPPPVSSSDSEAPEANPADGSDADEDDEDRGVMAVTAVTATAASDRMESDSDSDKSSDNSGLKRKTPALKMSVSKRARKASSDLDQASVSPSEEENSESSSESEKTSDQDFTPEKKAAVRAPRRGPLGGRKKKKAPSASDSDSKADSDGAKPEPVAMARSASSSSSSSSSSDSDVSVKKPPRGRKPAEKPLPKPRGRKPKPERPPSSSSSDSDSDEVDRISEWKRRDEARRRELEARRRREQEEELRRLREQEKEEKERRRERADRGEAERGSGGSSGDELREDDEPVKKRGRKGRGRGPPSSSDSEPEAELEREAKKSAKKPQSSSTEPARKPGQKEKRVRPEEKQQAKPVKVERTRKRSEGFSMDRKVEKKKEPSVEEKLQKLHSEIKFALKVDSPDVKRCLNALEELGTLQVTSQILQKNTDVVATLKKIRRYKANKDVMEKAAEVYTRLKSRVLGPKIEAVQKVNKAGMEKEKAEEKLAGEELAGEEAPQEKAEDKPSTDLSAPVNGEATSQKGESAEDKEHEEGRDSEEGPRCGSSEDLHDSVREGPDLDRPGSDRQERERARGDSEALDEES
UniProt Q9BX10: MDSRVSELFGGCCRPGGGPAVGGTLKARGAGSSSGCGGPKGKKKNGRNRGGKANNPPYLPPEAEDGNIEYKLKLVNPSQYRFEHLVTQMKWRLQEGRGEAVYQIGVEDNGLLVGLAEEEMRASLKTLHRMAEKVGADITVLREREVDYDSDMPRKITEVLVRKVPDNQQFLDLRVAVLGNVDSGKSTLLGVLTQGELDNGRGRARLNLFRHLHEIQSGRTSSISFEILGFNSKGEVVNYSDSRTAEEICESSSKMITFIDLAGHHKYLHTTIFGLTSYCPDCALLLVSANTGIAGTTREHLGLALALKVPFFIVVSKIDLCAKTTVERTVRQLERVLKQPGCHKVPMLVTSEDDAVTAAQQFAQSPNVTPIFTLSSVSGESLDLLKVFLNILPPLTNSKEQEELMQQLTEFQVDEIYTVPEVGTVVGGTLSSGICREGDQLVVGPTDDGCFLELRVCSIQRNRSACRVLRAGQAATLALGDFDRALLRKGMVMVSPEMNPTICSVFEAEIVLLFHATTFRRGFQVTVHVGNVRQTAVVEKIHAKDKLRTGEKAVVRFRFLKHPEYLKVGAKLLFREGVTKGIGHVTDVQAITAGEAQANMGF
UniProt P78417: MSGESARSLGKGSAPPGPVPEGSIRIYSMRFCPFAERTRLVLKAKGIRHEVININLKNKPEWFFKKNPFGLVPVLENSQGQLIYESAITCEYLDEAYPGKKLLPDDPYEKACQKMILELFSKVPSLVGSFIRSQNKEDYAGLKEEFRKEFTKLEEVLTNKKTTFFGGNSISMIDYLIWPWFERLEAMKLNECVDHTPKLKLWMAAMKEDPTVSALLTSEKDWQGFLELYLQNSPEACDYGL
UniProt P00390: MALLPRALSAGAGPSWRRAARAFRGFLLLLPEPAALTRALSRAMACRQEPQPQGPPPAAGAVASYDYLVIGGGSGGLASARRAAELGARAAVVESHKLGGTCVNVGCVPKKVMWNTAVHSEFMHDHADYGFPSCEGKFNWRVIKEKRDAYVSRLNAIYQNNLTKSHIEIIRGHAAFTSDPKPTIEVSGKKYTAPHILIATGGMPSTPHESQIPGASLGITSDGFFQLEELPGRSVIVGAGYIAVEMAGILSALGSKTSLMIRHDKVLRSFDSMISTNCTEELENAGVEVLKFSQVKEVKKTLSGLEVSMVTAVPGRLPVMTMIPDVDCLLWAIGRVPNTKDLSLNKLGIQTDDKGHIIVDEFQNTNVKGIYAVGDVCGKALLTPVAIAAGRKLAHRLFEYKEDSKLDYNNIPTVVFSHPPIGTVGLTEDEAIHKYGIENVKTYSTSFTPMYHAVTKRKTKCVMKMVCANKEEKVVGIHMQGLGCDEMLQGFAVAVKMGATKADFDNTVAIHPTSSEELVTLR
UniProt P02042: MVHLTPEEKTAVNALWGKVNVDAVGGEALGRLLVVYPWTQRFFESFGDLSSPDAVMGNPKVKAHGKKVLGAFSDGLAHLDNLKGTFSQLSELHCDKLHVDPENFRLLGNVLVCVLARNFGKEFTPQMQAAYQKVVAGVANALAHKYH
UniProt P40939: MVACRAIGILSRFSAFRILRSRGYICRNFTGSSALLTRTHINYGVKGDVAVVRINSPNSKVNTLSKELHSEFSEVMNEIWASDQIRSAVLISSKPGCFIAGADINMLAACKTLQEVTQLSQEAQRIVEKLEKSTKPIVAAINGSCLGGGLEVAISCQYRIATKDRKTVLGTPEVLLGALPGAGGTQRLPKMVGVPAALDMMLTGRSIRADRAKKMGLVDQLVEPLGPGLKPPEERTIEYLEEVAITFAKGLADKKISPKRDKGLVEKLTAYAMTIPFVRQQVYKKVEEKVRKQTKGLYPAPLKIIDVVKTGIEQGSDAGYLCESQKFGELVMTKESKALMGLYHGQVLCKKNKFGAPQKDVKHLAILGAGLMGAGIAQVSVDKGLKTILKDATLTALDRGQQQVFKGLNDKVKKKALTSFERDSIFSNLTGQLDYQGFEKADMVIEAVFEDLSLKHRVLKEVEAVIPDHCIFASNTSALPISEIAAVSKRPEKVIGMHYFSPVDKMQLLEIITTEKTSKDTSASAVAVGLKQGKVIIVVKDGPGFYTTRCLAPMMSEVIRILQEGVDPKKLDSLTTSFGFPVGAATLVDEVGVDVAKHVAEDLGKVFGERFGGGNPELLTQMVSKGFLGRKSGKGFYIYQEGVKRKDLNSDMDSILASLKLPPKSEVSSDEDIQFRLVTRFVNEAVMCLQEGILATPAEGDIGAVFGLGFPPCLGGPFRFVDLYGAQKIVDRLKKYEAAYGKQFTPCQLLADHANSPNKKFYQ
UniProt Q9P0R6: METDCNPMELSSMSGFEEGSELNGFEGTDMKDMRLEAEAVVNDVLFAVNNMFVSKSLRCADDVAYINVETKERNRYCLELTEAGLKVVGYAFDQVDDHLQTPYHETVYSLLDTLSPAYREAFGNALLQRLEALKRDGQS
UniProt Q16836: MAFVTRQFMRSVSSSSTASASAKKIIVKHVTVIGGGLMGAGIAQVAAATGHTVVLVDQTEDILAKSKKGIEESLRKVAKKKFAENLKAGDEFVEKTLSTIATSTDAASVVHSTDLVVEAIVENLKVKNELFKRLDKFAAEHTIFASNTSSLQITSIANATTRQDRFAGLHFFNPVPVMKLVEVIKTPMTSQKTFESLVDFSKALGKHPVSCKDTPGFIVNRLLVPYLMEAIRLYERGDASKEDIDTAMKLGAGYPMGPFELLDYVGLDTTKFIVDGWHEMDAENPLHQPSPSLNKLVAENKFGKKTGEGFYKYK
UniProt Q9NVX0: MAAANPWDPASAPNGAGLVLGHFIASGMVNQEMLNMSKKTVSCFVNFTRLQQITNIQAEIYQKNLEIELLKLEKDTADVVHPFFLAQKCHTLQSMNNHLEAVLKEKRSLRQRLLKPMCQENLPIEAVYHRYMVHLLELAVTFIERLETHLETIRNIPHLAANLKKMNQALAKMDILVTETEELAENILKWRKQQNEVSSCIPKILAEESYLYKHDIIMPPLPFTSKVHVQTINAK
UniProt P69892: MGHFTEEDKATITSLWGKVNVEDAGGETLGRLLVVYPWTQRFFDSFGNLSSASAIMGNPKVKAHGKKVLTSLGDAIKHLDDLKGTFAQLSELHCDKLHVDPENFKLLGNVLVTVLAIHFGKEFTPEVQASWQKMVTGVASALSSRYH
UniProt Q9Y5Q9: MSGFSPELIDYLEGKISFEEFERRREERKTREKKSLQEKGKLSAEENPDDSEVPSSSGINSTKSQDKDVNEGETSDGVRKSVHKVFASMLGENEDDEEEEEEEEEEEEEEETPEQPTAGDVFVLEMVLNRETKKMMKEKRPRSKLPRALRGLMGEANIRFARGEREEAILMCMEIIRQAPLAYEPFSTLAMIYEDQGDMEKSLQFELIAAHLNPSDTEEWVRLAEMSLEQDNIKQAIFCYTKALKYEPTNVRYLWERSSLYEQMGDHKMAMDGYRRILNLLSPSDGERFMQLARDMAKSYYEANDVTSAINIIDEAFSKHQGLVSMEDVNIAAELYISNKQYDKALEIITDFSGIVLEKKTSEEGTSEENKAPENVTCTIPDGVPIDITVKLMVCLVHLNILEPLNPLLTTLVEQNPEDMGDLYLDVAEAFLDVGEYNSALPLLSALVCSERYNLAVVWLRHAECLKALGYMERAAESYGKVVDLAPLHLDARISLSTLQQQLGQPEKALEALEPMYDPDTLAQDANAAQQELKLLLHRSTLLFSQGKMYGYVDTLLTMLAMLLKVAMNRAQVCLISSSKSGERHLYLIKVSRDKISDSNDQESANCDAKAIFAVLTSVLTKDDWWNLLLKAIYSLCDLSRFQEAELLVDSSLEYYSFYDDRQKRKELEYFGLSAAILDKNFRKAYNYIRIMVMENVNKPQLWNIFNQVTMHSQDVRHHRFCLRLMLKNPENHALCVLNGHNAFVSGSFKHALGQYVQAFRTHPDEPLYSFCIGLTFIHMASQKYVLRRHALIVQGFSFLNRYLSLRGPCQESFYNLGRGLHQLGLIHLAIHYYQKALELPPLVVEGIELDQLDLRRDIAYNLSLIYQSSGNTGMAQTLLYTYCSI
UniProt P13807: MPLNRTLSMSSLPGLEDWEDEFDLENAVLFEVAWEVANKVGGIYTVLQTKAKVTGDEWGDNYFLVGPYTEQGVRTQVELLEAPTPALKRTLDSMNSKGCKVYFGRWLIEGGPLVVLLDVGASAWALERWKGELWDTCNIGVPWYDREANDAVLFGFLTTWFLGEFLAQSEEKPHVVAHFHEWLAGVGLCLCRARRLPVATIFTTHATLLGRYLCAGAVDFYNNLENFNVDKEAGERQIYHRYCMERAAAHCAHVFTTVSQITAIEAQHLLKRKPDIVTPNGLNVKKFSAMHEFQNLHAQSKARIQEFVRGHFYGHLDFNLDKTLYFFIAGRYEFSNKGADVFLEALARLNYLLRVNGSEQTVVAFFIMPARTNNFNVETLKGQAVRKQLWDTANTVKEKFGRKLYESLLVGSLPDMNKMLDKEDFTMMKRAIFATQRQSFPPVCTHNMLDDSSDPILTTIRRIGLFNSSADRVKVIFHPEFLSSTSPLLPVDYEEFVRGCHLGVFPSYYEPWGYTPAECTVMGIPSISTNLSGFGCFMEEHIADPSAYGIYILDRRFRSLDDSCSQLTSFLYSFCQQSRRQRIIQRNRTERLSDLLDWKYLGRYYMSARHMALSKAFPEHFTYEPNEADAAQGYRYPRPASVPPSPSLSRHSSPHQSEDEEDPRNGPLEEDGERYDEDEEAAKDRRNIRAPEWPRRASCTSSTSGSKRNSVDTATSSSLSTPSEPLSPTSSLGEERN
UniProt P55084: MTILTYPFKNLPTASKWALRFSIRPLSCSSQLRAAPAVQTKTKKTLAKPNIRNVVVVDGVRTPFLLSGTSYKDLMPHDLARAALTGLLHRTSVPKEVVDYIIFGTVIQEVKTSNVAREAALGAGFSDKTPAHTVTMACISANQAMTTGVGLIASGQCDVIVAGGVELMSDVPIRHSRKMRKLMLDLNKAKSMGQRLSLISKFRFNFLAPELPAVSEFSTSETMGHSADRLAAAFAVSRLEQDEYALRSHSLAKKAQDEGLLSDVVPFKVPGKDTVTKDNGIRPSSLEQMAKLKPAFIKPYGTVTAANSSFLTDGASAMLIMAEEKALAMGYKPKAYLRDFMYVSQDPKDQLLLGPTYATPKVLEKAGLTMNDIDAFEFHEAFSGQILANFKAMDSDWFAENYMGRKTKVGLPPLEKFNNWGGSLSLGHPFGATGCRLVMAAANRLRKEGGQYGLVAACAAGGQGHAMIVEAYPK
UniProt P36969, whole entry, looked up: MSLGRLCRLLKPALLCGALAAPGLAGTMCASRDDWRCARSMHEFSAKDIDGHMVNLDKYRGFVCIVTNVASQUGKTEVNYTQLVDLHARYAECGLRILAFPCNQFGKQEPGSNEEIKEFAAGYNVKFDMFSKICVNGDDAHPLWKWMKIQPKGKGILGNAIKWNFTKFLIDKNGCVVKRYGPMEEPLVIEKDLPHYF
UniProt P13984, whole entry, looked up: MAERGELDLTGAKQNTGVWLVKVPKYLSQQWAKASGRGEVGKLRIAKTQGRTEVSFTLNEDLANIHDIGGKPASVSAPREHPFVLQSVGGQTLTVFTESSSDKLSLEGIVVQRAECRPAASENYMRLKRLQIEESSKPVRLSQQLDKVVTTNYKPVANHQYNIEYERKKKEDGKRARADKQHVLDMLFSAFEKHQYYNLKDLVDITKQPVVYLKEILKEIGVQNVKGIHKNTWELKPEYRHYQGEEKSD
UniProt P21266: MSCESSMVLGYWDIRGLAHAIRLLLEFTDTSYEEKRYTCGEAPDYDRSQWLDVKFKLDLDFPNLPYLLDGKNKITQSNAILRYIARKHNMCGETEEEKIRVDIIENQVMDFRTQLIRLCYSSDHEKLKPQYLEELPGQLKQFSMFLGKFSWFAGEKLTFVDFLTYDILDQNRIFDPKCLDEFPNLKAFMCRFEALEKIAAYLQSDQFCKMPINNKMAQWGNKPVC

Compound: Cc1ncc(-c2ccnc(Nc3ccc(S(C)(=O)=O)cc3)n2)n1C(C)C
Assay: log2 fold change, soluble protein after heating vs DMSO (PISA); higher = thermal stabilisation; K562 lysate, 10 uM; active = over 0.2 and 3.5 SD of the protein, either way, in both replicates (recomputed)
Procedure, shortened: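 A 30 min treatment with 10 μM compound was applied to crude K562 extract at 1 mg/mL protein in PBS pH 7.4 with 1 mM MgCl2. Heating for 3 min spanned 48°C-58°C, after which aliquots were pooled, adjusted to 0.5% NP-40 at 4°C and spun at 21,000xg for 90 min. TMTpro 16plex LC-MS/MS of the supernatant, with channel sums equalised, gave values recorded as log-two fold change in thermal stability against solvent controls, from duplicates.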

log2 fold change, inactive:
HAGH (UniProt Q16775) -0.004
HDGFL2 isoform 2 (UniProt Q7Z4V5) -0.021
GTPBP2 (UniProt Q9BX10) -0.014
H1FX (UniProt Q92522) 0.029
GSTZ1 (UniProt G3V4T6) -0.016
HBG1 (UniProt P69891) 0.019
H4C1 (UniProt P62805) -0.033
GSTO1 (UniProt P78417) -0.002
GSR (UniProt P00390) 0.039
HBD (UniProt P02042) 0.071
HADHA (UniProt P40939) 0.002
GSKIP (UniProt Q9P0R6) 0.16
HADH isoform 2 (UniProt Q16836) 0.031
GRAP2 (UniProt O75791) -0.002
HAUS2 (UniProt Q9NVX0) 0.069
HBG2 (UniProt P69892) 0.044
GTF3C3 (UniProt Q9Y5Q9) -0.026
GYS1 (UniProt P13807) 0.005
HADHB (UniProt P55084) 0.022
GPX4 (UniProt P36969) 0.039
HEATR1 (UniProt Q9H583) -0.041
HDLBP, A0A024R4E5 0.014
GTF2F2 (UniProt P13984) 0.006
GSTM3 (UniProt P21266) 0.05

Retrieved one by one from above (2):
log2 fold change, inactive:
GTF3C3 (UniProt Q9Y5Q9) -0.026
HAGH (UniProt Q16775) -0.004
